Assay results taken from PubChem BioAssay AID485314 (National Center for Advancing Translational Sciences (NCATS), 2010).
Out of some 340,000 compounds screened, about 4,500 (1.3%) were called active. The shares of active, inactive and inconclusive entries below differ from those in the screen. The call rests on the fitted dose curve; in most records, active means well fitted inhibition curve with a large enough effect; inconclusive means small, poorly fitted or top-dose-only effect, or another doubt; inactive means no such curve, though single readings can be large or run the other way. Potencies of inconclusive entries are doubtful fits and often do not repeat.

Target: DNA polymerase beta (Homo sapiens) (UniProt P06746)
Assay: qHTS Assay for Inhibitors of DNA Polymerase Beta
Settings: Pol beta primer extension/strand displacement, fluorescence kinetic; activity change, negative = inhibition: at 114 µM (top of the series)
Outline: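 Curves were derived by four-parameter Hill fits of normalized qHTS data. The kinetic fluorescent primer-extension read was taken at 0 and 10 min after 50 nM substrate, following a 15 min room-temperature preincubation of 10 nM enzyme with compounds.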
On the % scale 0 is the no-effect control and ±100 the full control effect; potency means the concentration at half of the fitted maximal effect.

Activity change, negative = inhibition, inactive:
COc1ccc(NC(=O)c2ccc3oc(=O)c(S(=O)(=O)c4ccc(C)cc4)cc3c2)cc1OC 31.4%
Cc1ccc2sc(N(Cc3cccnc3)C(=O)CCOc3ccccc3)nc2c1C 25.6%
CCOC(=O)c1c(C)[nH]c(C(=O)OCc2ccccc2F)c1C -11.1%
O=C(c1ccc2c(c1)N(Cc1ccccc1)C(=O)c1ccccc1S2(=O)=O)N1CCN(c2ccccc2)CC1 1.57%
COc1ccc(C2CC(=O)c3cc(-c4nc(-c5cccc([N+](=O)[O-])c5)cs4)c(=O)n(-c4ccc(C)c(C)c4)c3C2)cc1 (centres undefined) -11.4%
NC(=O)C(CC(=O)O)NC(=O)[C@@H]1CCCNc2c(I)cc([N+](=O)[O-])cc2C(=O)N[C@@H](CO)C(=O)N[C@@H](Cc2ccc(O)cc2)C(=O)N1 (some centres undefined) -24.2%
CCc1ccc(OCC(=O)NC(C)C)cc1 1.32%
CN(Cc1ccco1)C(=O)C1CCCN(c2ncnc3c2nc2n3CCCCC2)C1 (centres undefined) 3.94%
Cc1ccc2oc(=O)c3cc(C(=O)Nc4ccc(F)cc4F)sc3c2c1 27.6%

Retrieved one by one from the list above, 2 records:
Activity change, negative = inhibition, inactive:
NC(=O)C(CC(=O)O)NC(=O)[C@@H]1CCCNc2c(I)cc([N+](=O)[O-])cc2C(=O)N[C@@H](CO)C(=O)N[C@@H](Cc2ccc(O)cc2)C(=O)N1 (some centres undefined) -24.2%
O=C(c1ccc2c(c1)N(Cc1ccccc1)C(=O)c1ccccc1S2(=O)=O)N1CCN(c2ccccc2)CC1 1.57%

Following part.

Potency, inconclusive:
COC(=O)c1ccsc1NC(=O)CN1CCN(c2ncccn2)CC1 22.4 µM [inhibitor, single point]
O=C(CSc1nc2ccccc2o1)Nc1nc2ccc(Br)cc2s1 89.1 µM [inhibitor, single point]
CCOc1cccc(=O)c2c(C)n(C)c(C)c12 35.5 µM [inhibitor, full curve]
Cc1nn(C(C)C(=O)NC2CCCCC2)c(=O)c2c1sc1ccccc12 (centres undefined) 28.2 µM [inhibitor, full curve]
CC(Oc1ccc(Br)cc1)C(=O)Nc1ccc(S(=O)(=O)Nc2nccs2)cc1 (centres undefined) 0.891 µM [inhibitor, full curve, poor fit]
Cc1ccc(SCc2cc(-c3ccc(Cl)cc3)on2)cc1 89.1 µM [inhibitor, single point]
CCC1CCCCN1CCCNC(=O)CN1C(=O)c2cccnc2Oc2ccc(Cl)cc21 (centres undefined) 17.8 µM [inhibitor, partial curve]
CCN1CCN(C(=O)CN(C)S(=O)(=O)c2ccc(Cl)cc2)CC1 0.141 µM [inhibitor, full curve, poor fit]
Cc1noc(C)c1COc1cccc(C(=O)N2CCN(C/C=C/c3ccccc3)CC2)c1 11.2 µM [inhibitor, full curve, poor fit]
CCCCN(CCCC)S(=O)(=O)c1ccc2[nH]c(=O)[nH]c2c1 89.1 µM [inhibitor, single point]
